Here are results for 1 molecule from paper PMC9233679.

Assay [1] has as its target T1, S100A11 (human (endogenous in BxPC3 and SW1990)) (UniProt P31949).
T1 sequence: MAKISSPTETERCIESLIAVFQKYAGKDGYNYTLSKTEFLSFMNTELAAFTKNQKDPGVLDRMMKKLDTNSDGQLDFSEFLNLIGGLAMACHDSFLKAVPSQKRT
The assay is described as follows: proximity ligation; Duolink PLA in fixed, permeabilised BxPC3 or SW1990 cells; primary antibodies anti-S100A11 and anti-SMYD3; endogenous proteins.

The target of assay [2] is T1, S100A11 (human (endogenous in BxPC3 and SW1990)). The assay is described as follows: co-IP; 3 mg total cellular protein from PDAC cells; lysis buffer 20 mM Tris-HCl, 150 mM NaCl, 2 mM EDTA, 1% Triton X-100; 2 ug S100A11 antibody or IgG overnight at 4 °C, Protein-A/G beads; western blotting. In general terms: In western blotting, separated proteins are transferred to a membrane and probed.

No constants are given. Whether binding was seen depends on the method and setting. Binding seen in cells or lysates may run through a third protein. Some results given as binding are weak or reduced against the parent protein; the word gives no strength.

B1: SMYD3 (enzyme, UniProt Q9H7B4 1-428)
chain: MEPLKVEKFATAKRGNGLRAVTPLRPGELLFRSDPLAYTVCKGSRGVVCDRCLLGKEKLMRCSQCRVAKYCSAKCQKKAWPDHKRECKCLKSCKPRYPPDSVRLLGRVVFKLMDGAPSESEKLYSFYDLESNINKLTEDKKEGLRQLVMTFQHFMREEIQDASQLPPAFDLFEAFAKVICNSFTICNAEMQEVGVGLYPSISLLNHSCDPNCSIVFNGPHLLLRAVRDIEVGEELTICYLDMLMTSEERRKQLRDQYCFECDCFRCQTQDKDADMLTGDEQVWKEVQESLKKIEELKAHWKWEQVLAMCQAIISSNSERLPDINIYQLKVLDCAMDACINLGLLEEALFYGTRTMEPYRIFFPGSHPVRGVQVMKVGKLQLHQGMFPQAMKNLRLAFDIMRVTHGREHSLIEDLILLLEECDANIRAS
In the case of B1, the binding result in assay [1] and in assay [2] was “binds” in each case.
